Source: PubChem BioAssay AID686937 (Drosophila RNAi Screening Center, 2013)

Screen: 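Knock-downs that reduce output of a secreted reporter enzyme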 (primary screen)
Cells: Drosophila S2 cells expressing secreted horseradish peroxidase
Reagent: long dsRNA against Drosophila genes
Duration: about 5.5 days (5 days dsRNA, then 12 h reporter induction)
Challenge: reporter expression induced after 5 days of dsRNA, read 12 h later; inducer not stated
Measured: 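Chemiluminescent measurement of peroxidase in the medium 12 h after reporter induction, following 5 days of dsRNA, given as a z-score per plate; higher means more secretion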
Direction: z-score: higher = more reporter secreted into medium
In all, the deposit lists about 23,000 reagents; shown is a random part of those that have a named target and a result. 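Reduced-secretion tags in replicate 1 do not always agree with the z-scores; no criterion for assigning the tags was given.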 Not given: the amount of reagent.

Target gene | dsRNA | z-score, replicate 1 | z-score, replicate 2 | z-score, replicate 3 | z-score, replicate 4 | phenotype, replicate 1
CG7214 | DRSC03028 | -8.4 | 0.36 | 0.14 | -1.03 | reduced secretion
CG7214 | DRSC21869 | 0.19 | 0.78 | – | – | –
COX6AL2 | DRSC10082 | 0.17 | 0.51 | – | – | –
CG31800 | DRSC22525 | 0.98 | 2.02 | – | – | –
CG9062 | DRSC07327 | 0.29 | 0.24 | – | – | –
Dad1 | DRSC02263 | -0.42 | -1.16 | – | – | –
Gld | DRSC12595 | 0.25 | 0.31 | – | – | –
Cyp40 | DRSC10980 | -0.2 | 0.1 | – | – | –
Gr36b | DRSC21637 | -0.64 | -0.21 | – | – | –
Sec15 | DRSC16179 | -0.33 | -0.22 | – | – | –
CG10098 | DRSC12509 | 0.31 | 0.14 | – | – | –
Tdg | DRSC17119 | 0.63 | 0.54 | – | – | –
Tdg | DRSC17169 | 0.32 | 0.37 | – | – | –
Ak6 | DRSC07274 | 0.42 | 0.21 | – | – | –
CG7084 | DRSC16194 | 0.3 | 0.21 | – | – | –
CG6041 | DRSC18396 | 0.33 | 0.41 | – | – | –
CG18609 | DRSC06775 | 0.2 | 0.23 | – | – | –
wol | DRSC03077 | 0.09 | 0.24 | – | – | –
P5cr | DRSC16782 | 0.36 | 0.22 | – | – | –
Lerp | DRSC14750 | 0.42 | 0.45 | – | – | –
Lerp | DRSC14751 | 0.34 | 0.69 | – | – | –
Lerp | DRSC16030 | 0.26 | -0.02 | – | – | –
Lerp | DRSC16031 | 0.37 | 0.46 | – | – | –
Mur29B | DRSC01018 | 0.66 | 0.07 | – | – | –
Mur29B | DRSC02376 | 0.29 | 0.39 | – | – | –
CG6028 | DRSC15951 | 0.47 | 0.45 | – | – | –
CG5321 | DRSC19940 | 0.3 | 0.49 | – | – | –
CG5321 | DRSC22802 | -0.41 | -0.1 | – | – | –
CG34196 | DRSC05704 | 0.49 | 0.47 | – | – | –
Gar1 | DRSC04441 | -0.42 | -0.27 | – | – | –
CG13930 | DRSC08399 | 0.42 | 0.28 | – | – | –
Mal-B1 | DRSC02416 | 0.56 | 0.47 | – | – | –
Hip1 | DRSC09812 | 0.16 | 0.15 | – | – | –
CG18628 | DRSC10328 | 0.46 | 0.67 | – | – | –
CG9692 | DRSC11091 | 0.15 | 0.02 | – | – | –
CG11052 | DRSC14288 | 0.2 | 0.19 | – | – | –
slow | DRSC08589 | 0.34 | 0.45 | – | – | –
slow | DRSC08590 | -0.07 | 0.35 | – | – | –
CG17111 | DRSC15174 | 0.2 | 0.22 | – | – | –
CG8757 | DRSC11039 | 0.22 | 0.35 | – | – | –
Vap33 | DRSC18384 | 0.28 | 0.65 | – | – | –
CG6428 | DRSC18402 | 0.42 | -0.22 | – | – | –
EndoG | DRSC07292 | 0.14 | 0.4 | 0.37 | 0.12 | –
EndoG | DRSC22746 | 0.91 | 0.14 | – | – | –
TwdlB | DRSC16050 | 0.5 | 0.62 | – | – | –
nkd | DRSC11376 | 0.63 | 0.82 | – | – | –
flip | DRSC12326 | 0.2 | 0.16 | – | – | –
CG10086 | DRSC14183 | 0.22 | 0.04 | – | – | –
ARY (retired record) | DRSC20867 | -0.14 | -0.77 | – | – | –
CG12069 | DRSC14470 | 0.47 | 0.27 | – | – | –
CG12594 | DRSC14532 | 0.35 | 0.7 | – | – | –
hzg | DRSC10549 | -1.2 | -0.78 | – | – | –
CG32750 | DRSC18848 | 0.31 | 0.47 | – | – | –
nonA | DRSC20357 | -0.07 | -0.04 | – | – | –
morgue | DRSC00264 | 0.39 | 0.44 | – | – | –
Cnx14D | DRSC20214 | 0.23 | 0.63 | – | – | –
CG32603 | DRSC19409 | 0.52 | 0.56 | – | – | –
CG32603 | DRSC21586 | -0.05 | 0.15 | – | – | –
CG13871 | DRSC06430 | 0.17 | 0.04 | – | – | –
CG34280 | DRSC13229 | 0.31 | -0.05 | – | – | –
CG2104 | DRSC12304 | 0.13 | 0.45 | – | – | –
CG10663 | DRSC09770 | 0.33 | -0.15 | – | – | –
Vps28 | DRSC06168 | -0.66 | -0.68 | – | – | –
lost | DRSC12002 | 0.59 | 0.45 | – | – | –
lost | DRSC12234 | -0.28 | 0.26 | 0.28 | 0.02 | –
lost | DRSC21987 | 1.27 | 0.88 | – | – | –
CG14631 | DRSC17792 | 0.3 | 0.4 | – | – | –
CG14631 | DRSC17941 | 0.34 | 0.34 | – | – | –
pirk | DRSC04269 | -0.09 | 0.19 | – | – | –
Erasp | DRSC07111 | 0.23 | 0.47 | – | – | –
CG8173 | DRSC20088 | 0.3 | 0.05 | – | – | –
png | DRSC18582 | 0.22 | 0.3 | – | – | –
Gpo2 | DRSC06822 | 0.39 | 0.49 | – | – | –
CG13747 | DRSC06418 | 0.42 | 0.11 | – | – | –
beta'COP | DRSC03492 | -6.57 | -5.36 | – | – | reduced secretion
Pbgs | DRSC09718 | 0.38 | 0.41 | – | – | –
Argk1 | DRSC08959 | 0.81 | 0.21 | 0.35 | 0.17 | –
Argk1 | DRSC09668 | 0.19 | -0.15 | – | – | –
Argk1 | DRSC10460 | 0.51 | 0.46 | – | – | –
Argk1 | DRSC21558 | -6.27 | -0.47 | – | – | reduced secretion
Argk1 | DRSC22665 | 0.33 | 0.27 | – | – | –
CG14464 | DRSC07760 | 0.14 | 0.21 | – | – | –
